Assay results reported in patent US4937073A, “Reformed vetiver oil and vetiverol, process for preparing the same, and perfumery composition comprising the same” (Kao Corporation, priority 1988, dated 1990).

Columns and labels:
[1] = Decomposition of khushimol on heating vetiver oil with an acid; settings: Example 5, same conditions as in Example 4 (120° C., 8 hours)
[2] = Evaluation of fragrance/odor

Compound	Reduced Rate (%) Khushimol [1]	odor strength versus khusimol ([2]; compared with the odor of khusimol)	effect on the odor of khusimol ([2]; odor of khusimol inherent to vetiverol)
O=C(O)CC(O)(CC(=O)O)C(=O)O [Citric acid]	39.9%		
O=C(O)c1cccnc1 [Nicotinic acid]	19.3%		
C/C(CO)=C1/CCC2=CCCC(C)C2(C)C1 (stereo not shown) [isovalencenol]		stronger than the odor of khusimol	offset the odor of khusimol inherent to vetiverol
